# The supplement of paper PMC3334620
# The full ranking holds about 33,000 sequences; the median of “E-score (-0.5 to 0.5)” is about -0.0059, and the highest 2% start at about 0.26. The list shows a part of the results.
# Target: T1, Cin5 (UniProt P40917)
# T1 sequence: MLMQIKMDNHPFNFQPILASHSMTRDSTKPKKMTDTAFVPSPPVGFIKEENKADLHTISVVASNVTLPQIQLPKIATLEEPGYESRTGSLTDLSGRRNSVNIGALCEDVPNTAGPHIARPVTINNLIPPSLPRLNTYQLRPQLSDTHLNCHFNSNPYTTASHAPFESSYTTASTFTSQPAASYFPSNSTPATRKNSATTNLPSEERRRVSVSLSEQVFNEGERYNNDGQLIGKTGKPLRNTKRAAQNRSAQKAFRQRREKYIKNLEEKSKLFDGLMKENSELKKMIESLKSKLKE
# Test: PBM E-score (8-mer binding enrichment) (E-score (-0.5 to 0.5)); higher = stronger / more preferred TF binding
# Details: protein concentration: 100 nM; construct: GST-full length
# Outline: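 PURExpress in vitro transcription/translation supplied GST-tagged yeast transcription factors, either full-length or DNA-binding domain. Applied at about 100-200 nM to universal all-10-mer Agilent arrays double-stranded by primer extension, the bound protein was detected with fluorescent anti-GST. E-scores, modified Wilcoxon-Mann-Whitney statistics, were given by the Universal PBM Analysis Suite to ungapped eight-base words pooled with their reverse complements after masliner normalisation.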
row,Sequence,PBM E-score
1,AGCCGTCC,-0.0189
2,ACATCCAC,0.0849
3,AATGGTAC,0.012
4,AAAAATAG,0.0888
5,GGTGCTGA,-0.0684
6,GAGTGTTA,0.121
7,ACTTTGAT,0.126
8,AAAGTACA,0.215
9,GCTTTTCC,-0.183
10,AGTAAGCA,0.283
11,CAACCTTC,0.0189
12,GAGCATCA,-0.0649
13,TCTGATCA,0.0138
14,GAGGGCTA,-0.205
15,TCTCGCAA,-0.0425
16,AGCTCCTA,-0.248
17,CTATGCGC,0.136
18,GGGAACCA,-0.215
19,GAAAGGCC,-0.195
20,CTGGTACA,0.00678
21,GGGGACTA,-0.225
22,CAAAACAG,0.0697
23,AAGCCGCA,0.0428
24,ATAGCAGA,0.0551
25,AGCCAAGC,-0.143

row,Sequence,PBM E-score
1,GCTCTCAA,-0.0233
2,GATTCCCC,-0.127
3,AACTGTTG,0.0594
4,GAAGTCGA,0.114
5,ATGGTTTG,-0.00284
6,GAACACCC,-0.119
7,GCGACAGA,0.134
8,TTGTACAA,0.0843
9,AGGTAAAA,0.126
10,GCAGCTGA,0.0415
11,AATCTTTG,0.0817
12,CTACAAAA,0.111
13,TGCTCCCA,-0.188
14,GGGTGCCA,0.0119
15,CTAGGTCC,-0.119
16,AGCCACCG,-0.233
17,AATCGGAG,0.123
18,CTAGATAC,0.096
19,CAAGACAA,0.216
20,AAAACTAT,0.2
21,AATTTATC,0.27
22,AGTAAAGA,0.18
23,ACCTGGAC,-0.13
24,CTCAGGTA,0.0217
25,ACGGCTCC,-0.0551

# Reprinted at random: four records from the list
row,Sequence,PBM E-score
17,AATCGGAG,0.123
9,AGGTAAAA,0.126
1,GCTCTCAA,-0.0233
21,AATTTATC,0.27

# Next results

row,Sequence,PBM E-score
1,ATTAATAC,0.27
2,GAGGCCTC,-0.337
3,ACAACGAC,0.0696
4,CCTAGGCA,-0.118
5,ATGTACTG,0.0502
6,ACGTTAGC,0.243
7,CAGTAAAC,-0.00063
8,ACGCAGGC,-0.245
9,TAAGGTGA,-0.0218
10,AAGTCCTG,-0.236
11,CGAAGTAG,0.00111
12,ATATTAAA,0.35
13,CGGTACCA,-0.182
14,CTTTACGA,-0.142
15,AAAAAGGA,-0.0464
16,CCTGAAGC,-0.264
17,TGTTAAAA,0.0391
18,GGTGAGCA,-0.088
19,CATAGCAA,0.111
20,CTCGTAAG,0.304
21,GCATGTAC,0.00473
22,CGGCTGAG,-0.0825
23,CTCCCGAG,-0.282
24,CGAGTGCA,-0.0259
25,AGCTTATC,0.204

row,Sequence,PBM E-score
1,AGGCGGAT,-0.0191
2,GCGGTGGA,0.0809
3,CCTTACTC,0.128
4,ATTGCGAC,0.193
5,CACTTCTC,-0.0955
6,ATGCTACC,-0.0179
7,AAAGCGAT,0.21
8,CGCTACAG,-0.0762
9,ATTCGATA,0.221
10,GGAAAAAA,0.0511
11,CAAGACGC,-0.0331
12,TCCGGTAA,0.0576
13,CACCAAGG,-0.131
14,GAGAAAAA,0.0775
15,AATACCTA,0.216
16,TCAAGAAA,0.171
17,CGTAATGC,0.158
18,AGAAGCAT,0.0569
19,TATTAGAA,0.23
20,ACCCTAAA,0.0007
21,GCCGCAAA,0.0703
22,AGGAAAAA,0.0868
23,CCCATGGG,0.151
24,GTATACTA,-0.108
25,GCAGGTAC,-0.189

row,Sequence,PBM E-score
1,ACCATGGG,-0.178
2,CAGCGGGA,-0.0406
3,ACGATTTC,0.142
4,AGATCGAT,0.108
5,AGAAAATC,0.0524
6,ACACACCG,-0.137
7,AGTCTCTG,-0.171
8,ATCAAGTC,0.0575
9,ACCCACAG,-0.083
10,CAGAAATC,-0.024
11,CAGACGTC,-0.133
12,CGCGAATA,0.222
13,CCGTGAAC,-0.0879
14,CGATTTTA,0.102
15,AAGGTTCT,-0.0108
16,CTATGTCC,-0.118
17,CCTGGTTC,-0.0432
18,ATACGGAC,-0.0541
19,AAGAAAAC,0.0459
20,ATATCGAA,0.221
21,ACGATCTC,-0.149
22,AACAGGCA,-0.0483
23,GTCACCCA,-0.00586
24,CTTACACA,0.259
25,GAGCGCCA,-0.158

row,Sequence,PBM E-score
1,CGTTTAGA,0.0309
2,CACGTTGG,-0.0725
3,GTAGCAAC,0.00568
4,CACCGCAG,-0.105
5,ACGGCGCG,0.0464
6,ACTCCATA,-0.106
7,ATAGCCGC,-0.122
8,CGTCGACC,-0.00147
9,AAGACCAG,-0.0562
10,AACTACGC,-0.00929
11,GTCCACAC,0.0151
12,GATATATC,0.1
13,ACTGAGTA,0.124
14,CTGGAATA,0.181
15,CGTCTGCC,-0.186
16,ATTCTTGC,0.0997
17,GCTCGGAC,-0.085
18,ACAGCAAA,0.0822
19,CGTGGAAA,0.28
20,AGAGCATA,-0.105
21,CGCAGCAC,-0.0528
22,AATATGGG,0.0723
23,ACATACAT,0.229
24,CTTGCTCA,-0.203
25,GCCGGAAC,0.0891

row,Sequence,PBM E-score
1,ATAGTTCA,0.106
2,AATCCCGA,0.26
3,ATAATGCA,0.0778
4,ACATTTCA,0.185
5,AGTTGCAT,0.122
6,ACACCCGG,-0.0164
7,ACATGCCG,0.0535
8,AAGGACGT,-0.0436
9,TATGGGGA,0.27
10,ATCGGTAC,0.0519
11,TAGCGCTA,-0.106
12,ATCATAGA,0.172
13,CTATCGTC,-0.0983
14,CTGGCTTC,-0.213
15,ACGAAAAC,0.201
16,AAAGTCGT,0.00718
17,AAGCGGCT,0.126
18,CAAAACTG,0.0853
19,ATCCCAAC,0.0399
20,ACAGGCGA,-0.14
21,CTAGTAAA,0.165
22,ATTAAACG,0.178
